Here are results for 6 molecules from publication doi:10.1101/2020.09.14.296178.

First the molecules themselves.
T1: Halo-tagged PKP2 (cardiac specific plakophilin-2a) (UniProt Q99959)
T1 sequence: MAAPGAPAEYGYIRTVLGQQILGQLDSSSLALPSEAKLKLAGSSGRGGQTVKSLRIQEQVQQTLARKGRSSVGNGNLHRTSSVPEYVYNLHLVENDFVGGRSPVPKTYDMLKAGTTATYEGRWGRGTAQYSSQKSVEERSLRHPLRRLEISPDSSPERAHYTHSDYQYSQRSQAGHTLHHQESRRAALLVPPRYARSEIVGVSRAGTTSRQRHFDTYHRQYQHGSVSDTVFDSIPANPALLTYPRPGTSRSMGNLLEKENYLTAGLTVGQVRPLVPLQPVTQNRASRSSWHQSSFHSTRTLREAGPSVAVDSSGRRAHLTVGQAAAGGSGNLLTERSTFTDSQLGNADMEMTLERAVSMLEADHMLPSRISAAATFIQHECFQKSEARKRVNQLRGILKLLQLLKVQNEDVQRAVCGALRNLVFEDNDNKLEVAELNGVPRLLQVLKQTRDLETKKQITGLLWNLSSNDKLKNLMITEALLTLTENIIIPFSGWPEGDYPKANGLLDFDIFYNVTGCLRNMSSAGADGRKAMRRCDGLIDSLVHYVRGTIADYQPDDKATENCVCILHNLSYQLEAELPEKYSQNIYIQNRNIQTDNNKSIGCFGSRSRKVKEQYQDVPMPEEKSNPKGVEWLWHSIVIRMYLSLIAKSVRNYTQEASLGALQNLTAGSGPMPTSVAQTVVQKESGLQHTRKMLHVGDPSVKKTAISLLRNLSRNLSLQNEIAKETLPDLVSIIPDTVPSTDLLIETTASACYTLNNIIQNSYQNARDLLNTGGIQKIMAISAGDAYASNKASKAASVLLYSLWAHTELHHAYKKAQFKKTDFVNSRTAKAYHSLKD

B1: plakoglobin (protein, UniProt P14923 1-745)
chain: MEVMNLMEQPIKVTEWQQTYTYDSGIHSGANTCVPSVSSKGIMEEDEACGRQYTLKKTTTYTQGVPPSQGDLEYQMSTTARAKRVREAMCPGVSGEDSSLLLATQVEGQATNLQRLAEPSQLLKSAIVHLINYQDDAELATRALPELTKLLNDEDPVVVTKAAMIVNQLSKKEASRRALMGSPQLVAAVVRTMQNTSDLDTARCTTSILHNLSHHREGLLAIFKSGGIPALVRMLSSPVESVLFYAITTLHNLLLYQEGAKMAVRLADGLQKMVPLLNKNNPKFLAITTDCLQLLAYGNQESKLIILANGGPQALVQIMRNYSYEKLLWTTSRVLKVLSVCPSNKPAIVEAGGMQALGKHLTSNSPRLVQNCLWTLRNLSDVATKQEGLESVLKILVNQLSVDDVNVLTCATGTLSNLTCNNSKNKTLVTQNSGVEALIHAILRAGDKDDITEPAVCALRHLTSRHPEAEMAQNSVRLNYGIPAIVKLLNQPNQWPLVKATIGLIRNLALCPANHAPLQEAAVIPRLVQLLVKAHQDAQRHVAAGTQQPYTDGVRMEEIVEGCTGALHILARDPMNRMEIFRLNTIPLFVQLLYSSVENIQRVAAGVLCELAQDKEAADAIDAEGASAPLMELLHSRNEGTATYAAAVLFRISEDKNPDYRKRVSVELTNSLFKHDPAAWEAAQSMIPINEPYGDDMDATYRPMYSSDVPLDPLEMHMDMDGDYPIDTYSDGLRPPYPTADHMLA

No constants are given. Whether binding was seen depends on the method and setting. Binding seen in cells or lysates may run through a third protein. Here binding means that the protein was enriched with, or labelled near, the bait; the list need not be complete. Tags and fused reporters may be left off the sequences shown.

This assay addresses T1, Halo-tagged PKP2 (cardiac specific plakophilin-2a). Description: affinity purification with mass spectrometry.
With “myosin 9 (Myh9), non-muscle myosin heavy chain II-A (from UniProt P35579 1-1960)”, the binding result was “binds”. In the case of “desmoglein (human (endogenous in HEK293T))” it was “binds”; in that of “desmocolin (human (endogenous in HEK293T))”, “binds”. In the case of “desmoplakin (from UniProt P15924 1-2871)”, the binding entry is “binds”.

For “myosin 10 (Myh10), non-muscle myosin heavy chain II-B (from UniProt P35580 1-1976)”, the binding entry is “binds”.

As for B1, the binding result is listed as “binds”.
